Experimental findings from US20110152500A1 are described below.

No constants are given. Whether binding was seen depends on the method and setting.

The target in assay [1] is TNFα. The experiment in a line: phage ELISA, wells coated with 5 µg/ml protein, anti-M13-HRP, absorbance at 450 nm. Background: ELISA stands for enzyme-linked immunosorbent assay.
For a further assay, the target named is CD7. The description is as above.
Assay [2] addresses myoglobin. The experiment in a line: phage ELISA, wells coated with 5 µg/ml protein, anti-M13-HRP, absorbance at 450 nm; binder taken as the VCAM1 peptide 1 phage.
Assay [3] has as its target TNFα. The description is as above.
Assay [4] addresses lysozyme. The description is as above.
In assay [5] the target is Avidin. The experiment in a line: phage ELISA, wells coated with 5 µg/ml protein, anti-M13-HRP, absorbance at 450 nm.
For assay [6], the target named is myoglobin. Described as above.
Assay [7] has as its target lysozyme. Described as above.
The next assay deals with Visfatin. The description is as above.
In assay [8] the target is myoglobin. The experiment in a line: phage ELISA, wells coated with 5 µg/ml protein, anti-M13-HRP, absorbance at 450 nm; binder taken as the nAchR peptide 1 phage.
Assay [9] deals with Avidin. The description is as above.

With HSHAFYGSWTWENGKWTWKGNPGWWT [Peptide 1 specific to MyD88 (bipodal-peptide binder)], the binding result with TNFα [1] and with CD7 was “no binding” each time.

For the molecule QARDCTGSWTWENGKWTWKGPSICPI [Peptide 1 specific to VCAM1 (bipodal-peptide binder)], the binding result with myoglobin [2], with TNFα [3] and in the assay with lysozyme [4] was “no binding” throughout.

With HANFFQGSWTWENGKWTWKGWKYNQS [Peptide 1 specific to VEGF (bipodal-peptide binder)], the binding result with TNFα [1] and with Avidin [5] was “no binding” throughout.

In the case of HCSSAVGSWTWENGKWTWKGIIRLEQ [Peptide 2 specific to fibronectin ED-B (bipodal-peptide binder, tryptophan zipper)], the binding result with myoglobin [6], with TNFα [1], with lysozyme [7] and with Visfatin was “no binding” in each case.

As to EASFWLGSWTWENGKWTWKGKGTLNR [Peptide 1 specific to nAchR (bipodal-peptide binder)], the binding result in the assay with myoglobin [8] and in the assay with Avidin [9] was “no binding” throughout.

Take AASPYKGSWTWENGKWTWKGGWRMKM [Peptide 1 specific to HSA (bipodal-peptide binder)]: the binding entry in the assay with TNFα [1] and with Visfatin was “no binding” in each case.
